Data: patent publication US6413983B1, “Benzopyranyl heterocycle derivatives, process for preparation thereof, and pharmaceutical compositions containing them” (Dongbu Hannong Chemical Co. Ltd., priority 2000, dated 2002)
Some entries share one result that the patent states for a list of compounds.

system: SPF SD rats; conditions: single oral dose of 1 g/kg in 0.5% methyl cellulose

Row | SMILES | lethal dose (LD50) for oral administration
1 | CCNC(=O)[C@@H]1Cc2cc(OC)ccc2N1[C@@H]1c2cc([N+](=O)[O-])ccc2O[C@@](C)(C(OC)OC)[C@H]1O [Example 39, 1-[(2R, 3S, 4R)-3,4-dihydro-2-dimethoxymethyl-3-hydroxy-2-methyl-6-nitro-2H-1-benzopyran-4-yl]-(2S)-2,3-dihydro-1H-5-methoxyindole-2-carboxylic acid ethyl amide] | over 1 g/kg
2 | CCOC(=O)[C@@H]1Cc2cc(OC)ccc2N1[C@@H]1c2cc([N+](=O)[O-])ccc2O[C@@](C)(C(OC)OC)[C@H]1O [Example 35, 1-[(2R, 3S, 4R)-3,4-dihydro-2-dimethoxymethyl-3-hydroxy-2-methyl-6-nitro-2H-1-benzopyran-4-yl]-(2S)-2,3-dihydro-1H-5-methoxyindole-2-carboxylic acid ethyl ester] | over 1 g/kg
3 | CCOC(=O)[C@H]1Cc2cc(OC)ccc2N1[C@@H]1c2cc([N+](=O)[O-])ccc2O[C@@](C)(C(OC)OC)[C@H]1O [Example 36, 1-[(2R, 3S, 4R)-3,4-dihydro-2-dimethoxymethyl-3-hydroxy-2-methyl-6-nitro-2H-1-benzopyran-4-yl]-(2R)-2,3-dihydro-1H-5-methoxyindole-2-carboxylic acid ethyl ester] | over 1 g/kg
4 | CCOC(=O)[C@H]1Cc2cc(Cl)ccc2N1[C@@H]1c2cc([N+](=O)[O-])ccc2O[C@@](C)(C(OC)OC)[C@H]1O [Example 41, 1-[(2R, 3S, 4R)-3,4-dihydro-2-dimethoxymethyl-3-hydroxy-2-methyl-6-nitro-2H-1-benzopyran-4-yl]-1H-(2R)-2,3-dihydro-5-chloroindole-2-carboxylic acid ethyl ester] | over 1 g/kg
5 | CCOC(=O)[C@H]1Cc2cc(Cl)ccc2N1[C@H]1c2cc([N+](=O)[O-])ccc2O[C@](C)(C(OC)OC)[C@@H]1O [Example 19, 1-[(2S, 3R, 4S)-3,4-dihydro-2-dimethoxymethyl-3-hydroxy-2-methyl-6-nitro-2H-1-benzopyran-4-yl]-(2R)-2,3-dihydro-1H-5-chloroindole-2-carboxylic acid ethyl ester] | over 1 g/kg
6 | CCNC(=O)[C@@H]1Cc2cc(Cl)ccc2N1[C@H]1c2cc([N+](=O)[O-])ccc2O[C@](C)(C(OC)OC)[C@@H]1O [Example 26, 1-[(2S, 3R, 4S)-3,4-dihydro-2-dimethoxymethyl-3-hydroxy-2-methyl-6-nitro-2H-1-benzopyran-4-yl]-(2S)-2,3-dihydro-1H-5-chloroindole-2-carboxylic acid ethyl amide] | over 1 g/kg
7 | CCOC(=O)[C@@H]1Cc2cc(Cl)ccc2N1[C@H]1c2cc([N+](=O)[O-])ccc2O[C@](C)(C(OC)OC)[C@@H]1O [Example 20, 1-[(2S, 3R, 4S)-3,4-dihydro-2-dimethoxymethyl-3-hydroxy-2-methyl-6-nitro-2H-1-benzopyran-4-yl]-(2S)-2,3-dihydro-1H-5-chloroindole-2-carboxylic acid ethyl ester] | over 1 g/kg
8 | CCOC(=O)[C@H]1Cc2cc(OC)ccc2N1[C@H]1c2cc([N+](=O)[O-])ccc2O[C@](C)(C(OC)OC)[C@@H]1O [Example 11, 1-[(2S, 3R, 4S)-3,4-dihydro-2-dimethoxymethyl-3-hydroxy-2-methyl-6-nitro-2H-1-benzopyran-4-yl]-(2R)-2,3-dihydro-1H-5-methoxyindole-2-carboxylic acid ethyl ester] | over 1 g/kg
9 | CCOC(=O)[C@@H]1Cc2cc(Cl)ccc2N1[C@@H]1c2cc([N+](=O)[O-])ccc2O[C@@](C)(C(OC)OC)[C@H]1O [Example 40, 1-[(2R, 3S, 4R)-3,4-dihydro-2-dimethoxymethyl-3-hydroxy-2-methyl-6-nitro-2H-1-benzopyran-4-yl]-(2S)-2,3-dihydro-1H-5-chloroindole-2-carboxylic acid ethyl ester] | over 1 g/kg
10 | CCNC(=O)[C@H]1Cc2cc(Cl)ccc2N1[C@H]1c2cc([N+](=O)[O-])ccc2O[C@](C)(C(OC)OC)[C@@H]1O [Example 25, 1-[(2S, 3R, 4S)-3,4-dihydro-2-dimethoxymethyl-3-hydroxy-2-methyl-6-nitro-2H-1-benzopyran-4-yl]-(2R)-2,3-dihydro-1H-5-chloroindole-2-carboxylic acid ethyl amide] | over 1 g/kg
